We go through 4 molecules from PubChem BioAssay AID246 (DTP/NCI, 2004).

The test relates to BDF1 mice, P1081 chloroleukemia ip, survival T/C. Nature of the test: NCI In Vivo Anticancer Drug Screen. Data for tumor model P1081 Chloroleukemia (intraperitoneal) in B6D2F1 (BDF1) mice. The conditions noted are these: T/C endpoint: mean survival time, higher T/C = longer survival. As for the experimental part:
The antitumor activity of compounds was measured in mice bearing transplantable tumors. Survival or tumor size were measured and the results are expressed as the measurement made in the treated group (T) divided by the measurement made in the vehicle treated control group (C). The tumor model used in this assay is P1081 Chloroleukemia (intraperitoneal) in B6D2F1 (BDF1) mice

The mark [1] stands for this setting: dose: 3.12 mg/kg/injection, schedule: Q01DX Z (ip), vehicle: water.
The mark [2] stands for this setting: dose: 6.25 mg/kg/injection, schedule: Q01DX Z (ip), vehicle: water.
[3] abbreviates: dose: 2.0 mg/kg/injection, schedule: Q01DX010 (ip), vehicle: saline.
[4] abbreviates: dose: 4.0 mg/kg/injection, schedule: Q01DX Z (ip), vehicle: carboxymethylcellulose (CMC).

The list is a part of this screen's results and no random one: its compounds were picked by chemical class. Other doses and runs of a compound may be missing. T/C gives the treated animals as a percentage of the vehicle group. Some entries give survivors of the animals treated and no T/C: the source files T/C as zero there, which appears to mark a toxic dose or a test without result, not a measured value. Some doses without a T/C left all or most animals alive at the check, yet need not have been tolerated: survival well below the control is almost never listed, so the zero probably covers shortened survival too. Counts of survivors are from the toxicity check (mostly the fifth day) where no day follows; animals may have died later. Schedule codes are those of the source, taken here to give the interval after Q, in days (D) or hours (H), and the number of doses after X. Some doses were run more than once; the values are given in rising order. Some schedule codes hold Z or #, which are not explained here. Where survival is the endpoint, this PubChem deposit counts one and a half times the control or more as active, and values a quarter to a half above the control carry no call in these data; other NCI protocols may use other cut-offs. Some T/C values are followed by the survivors on the day toxicity was checked, most often the fifth; without a count or a note in brackets, all were alive then.

Regarding `CC[C@H](C)[C@@H]1NC(=O)/C(=C(\C)O)C1=O`, the T/C reads like this: (dose: 1.6 mg/kg/injection, schedule: Q01DX Z (ip), vehicle: water) 87 and 101 % of control; under setting [1], 97 % of control; under setting [2], 101 and 113 % of control; (dose: 12.5 mg/kg/injection, schedule: Q01DX Z (ip), vehicle: water) 98 and 105 % of control; (dose: 25.0 mg/kg/injection, schedule: Q01DX Z (ip), vehicle: water) 106 % of control. The survivor count is, setting by setting: under setting [1], 6 of 6; under setting [2], 6 of 6; (dose: 50.0 mg/kg/injection, schedule: Q01DX Z (ip), vehicle: water) 4 of 6.

On to `CN(N=O)C(=N)N[N+](=O)[O-]`, for which the T/C by setting is: (dose: 8.0 mg/kg/injection, schedule: Q01DX010 (ip), vehicle: saline) 122 and 155 % of control; (dose: 9.4 mg/kg/injection, schedule: Q01DX Z (ip), vehicle: carboxymethylcellulose (CMC)) 96 % of control; (dose: 16.0 mg/kg/injection, schedule: Q01DX010 (ip), vehicle: saline) 105 and 144 % of control; (dose: 18.75 mg/kg/injection, schedule: Q01DX Z (ip), vehicle: carboxymethylcellulose (CMC)) 108 % of control [5 of 6 alive]; (dose: 32.0 mg/kg/injection, schedule: Q01DX010 (ip), vehicle: saline) 88 and 94 % of control. Moreover, the survivor count (dose: 37.5 mg/kg/injection, schedule: Q01DX Z (ip), vehicle: carboxymethylcellulose (CMC)) is listed as 4 of 6; the survivor count (dose: 64.0 mg/kg/injection, schedule: Q01DX010 (ip), vehicle: saline) is 5 of 6 and 6 of 6; the survivor count (dose: 75.0 mg/kg/injection, schedule: Q01DX Z (ip), vehicle: carboxymethylcellulose (CMC)) is recorded as 2 of 6.

Take `NC1CCCCC1.O=P(O)(N(CCCl)CCCl)N1CC1`: the T/C was 100 % of control (dose: 1.25 mg/kg/injection, schedule: Q01DX010 (ip), vehicle: saline); 104 and 109 % of control (dose: 2.5 mg/kg/injection, schedule: Q01DX010 (ip), vehicle: saline); 122 and 159 % of control (dose: 5.0 mg/kg/injection, schedule: Q01DX010 (ip), vehicle: saline); 186 and 300 % of control (dose: 10.0 mg/kg/injection, schedule: Q01DX010 (ip), vehicle: saline); 100 % of control (dose: 20.0 mg/kg/injection, schedule: Q01DX010 (ip), vehicle: saline).

On to `Cc1[nH]c(=O)[nH]c(=O)c1N(CCCl)CCCl`, for which the T/C reads like this: (dose: 0.25 mg/kg/injection, schedule: Q01DX Z (ip), vehicle: carboxymethylcellulose (CMC)) 90 % of control; (dose: 0.5 mg/kg/injection, schedule: Q01DX010 (ip), vehicle: saline) 140 and 150 % of control; (dose: 0.5 mg/kg/injection, schedule: Q01DX Z (ip), vehicle: carboxymethylcellulose (CMC)) 90 % of control; (dose: 1.0 mg/kg/injection, schedule: Q01DX010 (ip), vehicle: saline) 105 and 211 % of control; (dose: 1.0 mg/kg/injection, schedule: Q01DX Z (ip), vehicle: carboxymethylcellulose (CMC)) 96 % of control; under setting [3], 333 % of control. Besides, the T/C is 92 % of control (dose: 2.0 mg/kg/injection, schedule: Q01DX Z (ip), vehicle: carboxymethylcellulose (CMC)) and 112 % of control under setting [4]. For the same molecule, the survivor count is 6 of 6 under setting [3]; 5 of 6 and 6 of 6 (dose: 4.0 mg/kg/injection, schedule: Q01DX010 (ip), vehicle: saline); 6 of 6 under setting [4]; 3 of 6 and 6 of 6 (dose: 8.0 mg/kg/injection, schedule: Q01DX Z (ip), vehicle: carboxymethylcellulose (CMC)); 3 of 6 and 6 of 6 (dose: 16.0 mg/kg/injection, schedule: Q01DX Z (ip), vehicle: carboxymethylcellulose (CMC)).
